Some results were stated once for a whole list of compounds, not compound by compound.
System: Experimental Autoimmune Encephalomyelitis (EAE) model
Experiment: Murine Experimental Autoimmune Encephalomyelitis (EAE) model of multiple sclerosis
Type: in vivo, C57BL/6 mice
Details: glatiramer acetate 200 μg SC on day 0, alone; scale of Table 2 (0-10)
Method: In this study, the therapeutic effect of treatment with glatiramer acetate (Copaxone®) alone or in combination with Zn-DFO on multiple sclerosis (MS) is tested, using the murine Experimental Autoimmune Encephalomyelitis (EAE) model.
EAE is induced in 8-week-old female C57BL/6 mice by subcutaneous (SC) injection of 125 μg of myelin oligodendrocyte glycoprotein 35-55 peptide (MOG35-55) emulsified in complete Freund's adjuvant (CFA) containing 5 mg/ml heat-killed Mycobacterium tuberculosis into the left para-lumbar region. Immediately thereafter, and again at 48 h, the mice are inoculated intraperitoneal (IP) with 0.5 ml of pertussis toxin (400 ng). Seven days later, the mice are further challenged with an additional injection of MOG35-55 peptide in CFA injected into the right para-lumbar region.
Mice are treated with SC injection of 200 (μg glatiramer acetate (Copaxone®) per animal in mannitol 4% emulsion on day 0. Part of the animals are continued to be treated with Zn-DFO as IP injections, 2 mg/kg or 6 mg/kg, thrice a week till the end of the experiment (Day 28). Two additional groups of mice are treated with Zn-DFO analogously, but without the preceding injection with glatiramer acetate. The severity of the disease is assessed using the scale shown in Table 2 (Bittner et al. 2014).

**Q.** glatiramer acetate was tested. Which “clinical score during the next period after peak” value did it give?
**A.** 3-4

**Q.** And the peak clinical score?
**A.** 4-5
